From PubChem BioAssay AID1671190 (National Center for Advancing Translational Sciences (NCATS), 2021) come the findings set out here.

By UniProt entry, the sequences of proteins in these tests, tags left out.
UniProt P18054, whole entry, looked up: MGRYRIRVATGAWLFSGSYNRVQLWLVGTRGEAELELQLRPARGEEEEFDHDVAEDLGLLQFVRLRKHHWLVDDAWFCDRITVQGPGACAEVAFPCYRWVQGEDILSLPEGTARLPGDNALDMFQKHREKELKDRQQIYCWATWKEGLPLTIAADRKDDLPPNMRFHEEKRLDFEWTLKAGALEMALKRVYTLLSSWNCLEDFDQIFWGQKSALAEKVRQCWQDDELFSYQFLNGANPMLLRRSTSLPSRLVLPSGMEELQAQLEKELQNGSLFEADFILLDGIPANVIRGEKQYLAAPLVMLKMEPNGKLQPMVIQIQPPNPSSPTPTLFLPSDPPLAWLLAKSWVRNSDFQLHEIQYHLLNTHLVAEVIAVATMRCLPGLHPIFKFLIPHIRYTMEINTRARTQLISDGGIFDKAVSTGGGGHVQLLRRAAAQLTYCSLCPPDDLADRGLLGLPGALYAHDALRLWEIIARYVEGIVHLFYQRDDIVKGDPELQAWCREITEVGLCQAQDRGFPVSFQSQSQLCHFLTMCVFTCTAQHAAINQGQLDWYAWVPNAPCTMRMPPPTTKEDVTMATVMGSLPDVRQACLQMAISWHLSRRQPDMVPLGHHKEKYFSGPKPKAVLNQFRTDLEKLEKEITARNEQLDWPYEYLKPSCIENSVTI

SMILES strings stand for the structures. Out of some 580,000 compounds screened, about 6,100 (1.1%) were called active. Roughly 15% stayed inconclusive and do not appear here. The call rests on the fitted dose curve; in most records, active means well fitted inhibition curve with a large enough effect; inconclusive means small, poorly fitted or top-dose-only effect, or another doubt; inactive means no such curve, though single readings can be large or run the other way. Only a part is listed here, and it is no random draw. The source gives no active or inactive call for entries shown without one.
On the % scale 0 is the no-effect control and ±100 the full control effect; potency means the concentration at half of the fitted maximal effect.

For the assay, the target named is Polyunsaturated fatty acid lipoxygenase ALOX12 (Homo sapiens) (UniProt P18054). Briefly: Primary qHTS assay for inhibitors of human arachidonate 12S-lipoxygenase (ALOX12): Round 2. Conditions: purified 12hLO, xylenol orange hydroperoxide absorbance; activity change, negative = inhibition: at 0.00344 µM (top of the series). The procedure, abridged: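 Purified human 12hLO (150 nM final) in 25 mM Hepes, 0.01% Triton X-100, pH 7.0 was preincubated 15 min at room temperature with compound. Then 40 uM arachidonic acid was added, 30 min. Hydroperoxide was read by Fe-XO absorbance ratio 573/405 nm.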
On to `CCCCCC=CCC=CCCCCCCCC(=O)OCC`, for which the activity change, negative = inhibition is -1.03%.
`O=C(Nc1nc(-c2ccc(Cl)cc2)cs1)NC1CCCCC1`: the Potency was active: 50.1 µM.
Turning to `Cc1ccc(S(=O)(=O)N2CCN(C(=O)c3cc4cc(C)ccc4nc3C)CC2)cc1`, the Potency was active: 39.8 µM.
Consider `CC(=O)OCC(=O)[C@@]1(O)CC[C@H]2[C@@H]3CCC4=CC(=O)C=C[C@]4(C)[C@H]3[C@@H](O)C[C@@]21C`, for which the activity change, negative = inhibition worked out at 27.4%.
As to `Oc1c(Br)cc(Br)cc1CNc1cccc2cccnc12`, the Potency is active: 14.1 µM.
Regarding `CCC(C(=O)NCc1ccc(C)cc1)c1ccccc1` (stereo not drawn), the Potency was active: 25.1 µM.
Regarding `Cc1c(Nc2ncccc2C(=O)O)cccc1C(F)(F)F`, the activity change, negative = inhibition worked out at 14.8%.
On to `CC[C@H](c1ccc(O)cc1)[C@@H](CC)c1ccc(O)cc1`, for which the activity change, negative = inhibition was 50.5%.
As for `CCC(=O)N1Cc2ccccc2CC2(CCN(CCc3ccc(C)cc3)CC2)C1`, the Potency was active: 35.5 µM.
With `O=C(O)c1cc(=O)c2c(OCC(O)COc3cccc4oc(C(=O)O)cc(=O)c34)cccc2o1`, the activity change, negative = inhibition stood at 26.9%.
Same read-out and setting: with `C[C@H]1c2cccc(O)c2C(O)=C2C(=O)[C@]3(O)C(O)=C(C(N)=O)C(=O)[C@@H](N(C)C)[C@@H]3[C@@H](O)[C@@H]21` the figure was -13.8%.
Consider `Oc1c(Cl)cc(Cl)cc1Sc1cc(Cl)cc(Cl)c1O`, for which the activity change, negative = inhibition was -44.8%.
For the molecule `C=CCc1ccccc1OCC(O)CNC(C)C` (stereo not drawn), the activity change, negative = inhibition stood at 28.3%.
Turning to `CCCCOc1ccc(CC(=O)NO)cc1`, the activity change, negative = inhibition was -10.8%.
In the case of `CC(=O)OC(C)C[N+](C)(C)C` (stereo not drawn), the activity change, negative = inhibition was -5.16%.
Consider `Cc1ccc(O)c([C@H](CCN(C(C)C)C(C)C)c2ccccc2)c1`, for which the activity change, negative = inhibition is 12.9%.
With `O=C(CN1CCN(Cc2ccc3c(c2)OCO3)CC1)N1c2ccccc2Sc2ccccc21`, the Potency is active: 0.794 µM and the activity change, negative = inhibition is 19.5%.
With `O=C(/C=C/c1ccccc1)OCc1ccccc1`, the activity change, negative = inhibition is -59.3%.
Consider `CCOC(=O)C(=O)c1csc(NC=O)n1`, for which the activity change, negative = inhibition turned out to be 6.16%.
The same measure, in the same setting: the figure for `CN(C)CCC(c1ccccc1)c1ccccn1` (stereo not drawn) is -7.65%; for `O=C1NC(c2ccccc2)(c2ccccc2)C(=O)N1COP(=O)(O)O` it is 9.71%.
Consider `NC(=O)c1cc(-c2csc(NCCc3ccccc3)n2)ccc1O`, for which the Potency was active: 31.6 µM.
As to `Cc1cc(-n2nc3ccc(Cl)cc3n2)c(O)c(C(C)(C)C)c1`, the activity change, negative = inhibition was -27.5%.
Consider `O=C(O)c1c(O)c(-c2ccccc2)nc2ccccc12`, for which the activity change, negative = inhibition was -31.5%.
For `CC[C@]1(O)C[C@@H]2CN(CCc3c([nH]c4ccccc34)[C@@](C(=O)OC)(c3cc4c(cc3OC)N(C)[C@H]3[C@@](O)(C(=O)OC)[C@H](OC(C)=O)[C@]5(CC)C=CCN6CC[C@]43[C@@H]65)C2)C1`, the activity change, negative = inhibition was -1.8%.
Same read-out and setting: the figure for `O=P(O)(O)C(O)(Cc1cccnc1)P(=O)(O)O` is 52.9%.
The same measure, in the same setting: with `COc1ccc(-n2nc(CCC(=O)N(C)O)cc2-c2ccc(Cl)cc2)cc1` the figure was -12.5%.
Take `CCC(c1cccs1)N1C(=O)[C@H]2CN(S(=O)(=O)c3cccc(Cl)c3)C[C@H]2C1=O` (stereo partly drawn): the Potency was active: 31.6 µM.
Regarding `CC(C)NC(=O)c1ccc(C=O)cc1`, the activity change, negative = inhibition is -82%.
Regarding `CCCC(C(=O)OCCN(CC)CC)(c1ccccc1)c1ccccc1`, the activity change, negative = inhibition was determined as 2.32%.
For `NC(=O)NO`, the activity change, negative = inhibition was -26.5%.
Regarding `Clc1ccccc1C(c1ccccc1)(c1ccccc1)n1ccnc1`, the activity change, negative = inhibition was -7.78%.
Same read-out and setting: with `CNC1(C)C2CCC(C2)C1(C)C` (stereo not drawn) the figure was -5.87%.
As for `COc1ccc(Br)c2oc(S)cc(=O)c12`, the Potency is active: 6.31 µM.
On to `COc1ccccc1-c1cncnc1Nc1ccccc1`, for which the Potency was active: 39.8 µM.
Consider `O=C(O)CCc1nc2ccccc2[nH]1`, for which the activity change, negative = inhibition was -1.79%.
With `CCCc1nc(C)c2c(=O)[nH]c(-c3cc(S(=O)(=O)N4CCN(CC)CC4)ccc3OCC)nn12`, the activity change, negative = inhibition is -28.7%.
For the molecule `O=C(Cc1ccccc1)Nc1sc2c(c1C(=O)Nc1ccc(Cl)cc1)CCCC2`, the Potency was active: 15.8 µM.
Regarding `CC(C)(Oc1ccc(C2CC2(Cl)Cl)cc1)C(=O)O` (stereo not drawn), the activity change, negative = inhibition was -18.9%.
With `O=C(O)COc1ccc2c(=O)c(Oc3ccc(Cl)cc3)coc2c1`, the Potency was active: 12.6 µM.
The same measure, in the same setting: with `CCOC(=O)c1c(N)sc(N)c1C(=O)OCC` the figure was active: 50.1 µM.
Consider `CN(CC1(C)CCCO1)S(=O)(=O)c1ccc(Cl)c(S(N)(=O)=O)c1` (stereo not drawn), for which the activity change, negative = inhibition is 8.4%.
As for `CC1CCN(CCCC(=O)c2ccc(F)cc2)CC1`, the activity change, negative = inhibition stood at 23.9%.
As for `Nc1ccc(S(N)(=O)=O)cc1`, the activity change, negative = inhibition is 2.72%.
Take `COc1ccc(-c2cn(-c3ccc(C)c(C)c3)c(=S)[nH]2)cc1OC`: the Potency was active: 28.2 µM.
On the same count and under the same terms, with `COc1ccc(S(=O)(=O)N2CCN(C(=O)C3COc4ccccc4O3)CC2)cc1` (stereo not drawn) the figure was active: 39.8 µM.
For the molecule `Cc1ccc(CCn2c3c(c4cc(Cl)ccc42)CN(C)CC3)cn1`, the activity change, negative = inhibition was -31.5%.
On to `CSc1ccc(/C=C2/C(C)=C(CC(=O)O)c3cc(F)ccc32)cc1`, for which the activity change, negative = inhibition stood at 14.1%.
The same measure, in the same setting: with `CCOC(=O)c1ccc(C#Cc2ccc3c(c2)C(C)(C)CCS3)nc1` the figure was -9.1%; with `CCC(C)(C)c1ccc(CC(C)CN2C[C@@H](C)O[C@@H](C)C2)cc1` (stereo partly drawn), 11.5%; with `Nc1nc(N)nc(-c2cc(Cl)ccc2Cl)n1`, 5.9%.
Regarding `O=C(O)/C=C/c1cc(Br)c(-c2ccc(Cl)cc2Cl)o1`, the Potency is active: 39.8 µM.
